Results on two molecules are retold here after paper PMC8575788.

For experiment [1], the target named is HA-tagged LAP2α (human). Kind of experiment: co-IP; HEK293T cells co-transfected with both partners; whole-cell extracts (buffer X: 100 mM Tris-HCl, 250 mM NaCl, 1 mM EDTA, 1% NP-40, Benzonase, sonication) immunoprecipitated with anti-FLAG or anti-HA antibody, immunoblotting. In general terms: Immunoblotting shows a protein as a band on a membrane.
In experiment [2] the target is HA-tagged LAP2α (human). Nature of the experiment: co-IP; HEK293T cells transfected with HA-tagged LAP2α alone; whole-cell extracts immunoprecipitated with anti-HA antibody, immunoblotting for endogenous proteins.
The target of experiment [3] is endogenous LAP2α. Nature of the experiment: co-IP; attempt to detect interactions between endogenous proteins; cells and antibody not told.

Results are given in words; binding and its absence hold for the method and conditions named. In cells and extracts the contact can be indirect. For part of these data: A result given as binding can be weak or reduced; the word gives no strength.

B1: RFC1 (transiently overexpressed) (protein, UniProt P35251 1-1148)
chain: MDIRKFFGVIPSGKKLVSETVKKNEKTKSDEETLKAKKGIKEIKVNSSRKEDDFKQKQPSKKKRIIYDSDSESEETLQVKNAKKPPEKLPVSSKPGKISRQDPVTYISETDEEDDFMCKKAASKSKENGRSTNSHLGTSNMKKNEENTKTKNKPLSPIKLTPTSVLDYFGTGSVQRSNKKMVASKRKELSQNTDESGLNDEAIAKQLQLDEDAELERQLHEDEEFARTLAMLDEEPKTKKARKDTEAGETFSSVQANLSKAEKHKYPHKVKTAQVSDERKSYSPRKQSKYESSKESQQHSKSSADKIGEVSSPKASSKLAIMKRKEESSYKEIEPVASKRKENAIKLKGETKTPKKTKSSPAKKESVSPEDSEKKRTNYQAYRSYLNREGPKALGSKEIPKGAENCLEGLIFVITGVLESIERDEAKSLIERYGGKVTGNVSKKTNYLVMGRDSGQSKSDKAAALGTKIIDEDGLLNLIRTMPGKKSKYEIAVETEMKKESKLERTPQKNVQGKRKISPSKKESESKKSRPTSKRDSLAKTIKKETDVFWKSLDFKEQVAEETSGDSKARNLADDSSENKVENLLWVDKYKPTSLKTIIGQQGDQSCANKLLRWLRNWQKSSSEDKKHAAKFGKFSGKDDGSSFKAALLSGPPGVGKTTTASLVCQELGYSYVELNASDTRSKSSLKAIVAESLNNTSIKGFYSNGAASSVSTKHALIMDEVDGMAGNEDRGGIQELIGLIKHTKIPIICMCNDRNHPKIRSLVHYCFDLRFQRPRVEQIKGAMMSIAFKEGLKIPPPAMNEIILGANQDIRQVLHNLSMWCARSKALTYDQAKADSHRAKKDIKMGPFDVARKVFAAGEETAHMSLVDKSDLFFHDYSIAPLFVQENYIHVKPVAAGGDMKKHLMLLSRAADSICDGDLVDSQIRSKQNWSLLPAQAIYASVLPGELMRGYMTQFPTFPSWLGKHSSTGKHDRIVQDLALHMSLRTYSSKRTVNMDYLSLLRDALVQPLTSQGVDGVQDVVALMDTYYLMKEDFENIMEISSWGGKPSPFSKLDPKVKAAFTRAYNKEAHLTPYSLQAIKASRHSTSPSLDSEYNEELNEDDSQSDEKDQDAIETDAMIKKKTKSSKPSKPEKDKEPRKGKGKSSKK
B1: the binding entry in experiment [1] is on record as “binds”.

B2: endogenous RFC1 (protein, UniProt P35251 1-1148)
chain: MDIRKFFGVIPSGKKLVSETVKKNEKTKSDEETLKAKKGIKEIKVNSSRKEDDFKQKQPSKKKRIIYDSDSESEETLQVKNAKKPPEKLPVSSKPGKISRQDPVTYISETDEEDDFMCKKAASKSKENGRSTNSHLGTSNMKKNEENTKTKNKPLSPIKLTPTSVLDYFGTGSVQRSNKKMVASKRKELSQNTDESGLNDEAIAKQLQLDEDAELERQLHEDEEFARTLAMLDEEPKTKKARKDTEAGETFSSVQANLSKAEKHKYPHKVKTAQVSDERKSYSPRKQSKYESSKESQQHSKSSADKIGEVSSPKASSKLAIMKRKEESSYKEIEPVASKRKENAIKLKGETKTPKKTKSSPAKKESVSPEDSEKKRTNYQAYRSYLNREGPKALGSKEIPKGAENCLEGLIFVITGVLESIERDEAKSLIERYGGKVTGNVSKKTNYLVMGRDSGQSKSDKAAALGTKIIDEDGLLNLIRTMPGKKSKYEIAVETEMKKESKLERTPQKNVQGKRKISPSKKESESKKSRPTSKRDSLAKTIKKETDVFWKSLDFKEQVAEETSGDSKARNLADDSSENKVENLLWVDKYKPTSLKTIIGQQGDQSCANKLLRWLRNWQKSSSEDKKHAAKFGKFSGKDDGSSFKAALLSGPPGVGKTTTASLVCQELGYSYVELNASDTRSKSSLKAIVAESLNNTSIKGFYSNGAASSVSTKHALIMDEVDGMAGNEDRGGIQELIGLIKHTKIPIICMCNDRNHPKIRSLVHYCFDLRFQRPRVEQIKGAMMSIAFKEGLKIPPPAMNEIILGANQDIRQVLHNLSMWCARSKALTYDQAKADSHRAKKDIKMGPFDVARKVFAAGEETAHMSLVDKSDLFFHDYSIAPLFVQENYIHVKPVAAGGDMKKHLMLLSRAADSICDGDLVDSQIRSKQNWSLLPAQAIYASVLPGELMRGYMTQFPTFPSWLGKHSSTGKHDRIVQDLALHMSLRTYSSKRTVNMDYLSLLRDALVQPLTSQGVDGVQDVVALMDTYYLMKEDFENIMEISSWGGKPSPFSKLDPKVKAAFTRAYNKEAHLTPYSLQAIKASRHSTSPSLDSEYNEELNEDDSQSDEKDQDAIETDAMIKKKTKSSKPSKPEKDKEPRKGKGKSSKK
On to B2, for which the binding entry in experiment [2] and in experiment [3] was “no binding” throughout.
